# Experimental data: PubChem BioAssay AID652272 (Drosophila RNAi Screening Center, 2013)
# Purpose: 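Genome-wide knock-down search for components of Hedgehog signalling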 (primary screen)
# Cell system: Drosophila clone 8 (Cl8) cells
# Reagent: long dsRNA against Drosophila genes
# Measured: 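Plate reader light from a firefly reporter under a ptc promoter fragment that responds to Hedgehog, with Renilla light as transfection reference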
# Direction: firefly Hh reporter signal: higher = more ptc reporter light; Renilla reference signal: higher = more Renilla control light
# Rule for the call: 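Called a hit if the two-replicate mean z-score lies below -2 or above +3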
# Meaning of the calls: active = hit: reporter lowered or raised; inactive = not a hit
# The deposit covers about 21,000 reagents; below is a random part of those that have a named target and a result. Over the whole deposit, 503 (2.4%) were called active. 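Raw plate light values, not normalised; calls rest on replicate z-scores that were not deposited; hits include reporter decreases as well as increases.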 A number with no mark means an inactive call. A plus sign joins genes that one reagent is predicted to hit. Not stated in the record: the amount of reagent, the time to read-out.
target,DRSC id,"firefly Hh reporter signal, replicate 1","firefly Hh reporter signal, replicate 2","firefly Hh reporter signal, replicate 3","Renilla reference signal, replicate 1","Renilla reference signal, replicate 2"
Drs (Drosomycin),DRSC08657,1.03e5,61392,,3386,4613
Spred (Sprouty-related protein with EVH-1 domain),DRSC05976,93644,86931,,4176,3276
CG4404,DRSC19897,76224,1.67e5,,2002,8306
Cyp6t1 (Cytochrome P450 6t1),DRSC20564,1.07e5,3.26e5,,2896,14387
CG7298,DRSC10802,66944,76704,,2982,3109
CG31436,DRSC14661,5.38e5,1.23e5,,28228,3853
CG7201,DRSC10786,49604,63754,,5245,4144
CG4025,DRSC18523,1.34e5,2.50e5,,5105,9174
CG10274,DRSC09716,77980,66421,,4340,2536
CG43124,DRSC13867,59793,3.21e5,,14616,7456
TBC1D23 (TBC1 domain family member 23),DRSC00657,1.25e5,79594,,3249,2096
CG31862,DRSC01245,4.57e5,2.73e5,,17242,12989
Prp18,DRSC16802,82433,35699,,4057,2072

4 entries already listed, ordered by “Renilla reference signal, replicate 2”, descending.
target,DRSC id,"firefly Hh reporter signal, replicate 1","firefly Hh reporter signal, replicate 2","firefly Hh reporter signal, replicate 3","Renilla reference signal, replicate 1","Renilla reference signal, replicate 2"
Cyp6t1 (Cytochrome P450 6t1),DRSC20564,1.07e5,3.26e5,,2896,14387
CG7201,DRSC10786,49604,63754,,5245,4144
CG31436,DRSC14661,5.38e5,1.23e5,,28228,3853
CG7298,DRSC10802,66944,76704,,2982,3109

Next entries follow.
target,DRSC id,"firefly Hh reporter signal, replicate 1","firefly Hh reporter signal, replicate 2","firefly Hh reporter signal, replicate 3","Renilla reference signal, replicate 1","Renilla reference signal, replicate 2"
pgc (polar granule component),DRSC04099,1.56e5,62385,,3552,3250
Polr2C (RNA polymerase II subunit C),DRSC03415,60397,42320,,2460,1472
CG3909,DRSC14150,75184,1.30e5,,2180,3028
mdlc (midlife crisis),DRSC15690,67380,67900,,1893,2641
ScpX,DRSC03430,1.18e5,98293,,4994,4649
cv (crossveinless),DRSC17833,65801,2.16e5,,2346,8368
CG13743,DRSC05139,8.17e5,2.02e5,1.81e5,7541,5436
CG13743,DRSC06414,72768,26012,,1537,1832
mah (mahogany),DRSC14645,5.73e5,91408,,27141,2772
CG5149,DRSC02819,48065,73344,,2324,2730
sinu (sinuous),DRSC09752,6.15e5,95975,,4594,4594
Kap-alpha1 (karyopherin alpha1),DRSC11356,94246,96134,,3723,3424
CG30338,DRSC05166,97158,2.53e5,,8572,10986
betaTub60D (beta-Tubulin at 60D),DRSC04673,1.06e5,70066,,2647,6374
ab (abrupt),DRSC01162,68688 (active),3.01e5,,4371,19127
ab (abrupt),DRSC03478,65164,23605,,1762,1890
syd (sunday driver),DRSC10963,1.01e5,76325,,4185,2976
Tmtc1 (Transmembrane O-mannosyltransferase targeting cadherins 1),DRSC00147,6.34e5,2.16e5,,35204,8579
Tmtc1 (Transmembrane O-mannosyltransferase targeting cadherins 1),DRSC00151,6.19e5,1.48e5,,32003,6203
Tmtc1 (Transmembrane O-mannosyltransferase targeting cadherins 1),DRSC00314,1.57e5,1.21e5,,3556,3034
Tmtc1 (Transmembrane O-mannosyltransferase targeting cadherins 1),DRSC00411,1.19e5,99184,,2681,2506
CG13481,DRSC10023,83398,,,2921,2429
CG15404,DRSC00418,1.09e5,45940,,2749,4624
yki (yorkie),DRSC04437,1.09e5,60690,,4224,2571
bcd + CR14578,DRSC20984,43035,2.28e5,,739,9097
PolrMT (RNA polymerase mitochondrial),DRSC00660,78810,65568,,2851,2773
